Results are given in words; binding and its absence hold for the method and conditions named. In cells and extracts the contact can be indirect. Some entries that bind do so weakly or less than the wild type. Each block holds one molecule with its values, some of them ahead of it.
Molecular target: Sec23 homolog B (SEC23B) (human (endogenous in SW480)) (UniProt Q15437)
Experiment: co-IP; SW480 cells homogenized, immunoprecipitated with homemade monoclonal antibody against SEC23B, immunoblotted with antibodies against EPCAM or CD9

Chains of the proteins cited; added tags and fusions are not shown.
UniProt Q15437: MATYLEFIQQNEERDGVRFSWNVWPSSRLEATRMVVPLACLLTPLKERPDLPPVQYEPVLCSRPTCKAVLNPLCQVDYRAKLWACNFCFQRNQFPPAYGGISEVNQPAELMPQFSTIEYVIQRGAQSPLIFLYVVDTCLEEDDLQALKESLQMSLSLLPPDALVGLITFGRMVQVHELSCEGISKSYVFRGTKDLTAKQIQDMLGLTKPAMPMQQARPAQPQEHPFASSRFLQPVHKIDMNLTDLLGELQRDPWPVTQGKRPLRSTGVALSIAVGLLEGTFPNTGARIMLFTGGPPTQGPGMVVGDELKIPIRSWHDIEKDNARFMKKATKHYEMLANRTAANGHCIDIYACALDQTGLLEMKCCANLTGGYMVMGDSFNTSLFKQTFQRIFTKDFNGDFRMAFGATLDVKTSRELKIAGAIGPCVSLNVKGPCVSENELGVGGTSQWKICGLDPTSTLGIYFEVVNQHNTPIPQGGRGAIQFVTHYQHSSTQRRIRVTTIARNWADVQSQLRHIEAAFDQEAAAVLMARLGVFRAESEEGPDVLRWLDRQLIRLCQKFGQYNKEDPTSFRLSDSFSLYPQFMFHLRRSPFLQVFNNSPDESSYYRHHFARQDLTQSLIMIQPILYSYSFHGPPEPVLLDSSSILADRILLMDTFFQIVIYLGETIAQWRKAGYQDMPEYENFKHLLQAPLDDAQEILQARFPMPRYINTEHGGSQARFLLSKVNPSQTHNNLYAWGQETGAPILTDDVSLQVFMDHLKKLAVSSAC
UniProt P21926: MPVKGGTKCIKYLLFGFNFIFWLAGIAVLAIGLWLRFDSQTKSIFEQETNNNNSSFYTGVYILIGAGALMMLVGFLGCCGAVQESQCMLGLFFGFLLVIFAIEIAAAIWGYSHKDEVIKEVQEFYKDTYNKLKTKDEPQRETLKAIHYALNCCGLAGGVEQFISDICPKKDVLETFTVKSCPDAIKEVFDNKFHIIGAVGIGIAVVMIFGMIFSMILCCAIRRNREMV

binding: binds
Molecule: CD9 molecule (from UniProt P21926 1-228)

binding: binds
B1: epithelial cell adhesion molecule (EPCAM) (protein, UniProt P16422 24-314)
chain: QEECVCENYKLAVNCFVNNNRQCQCTSVGAQNTVICSKLAAKCLVMKAEMNGSKLGRRAKPEGALQNNDGLYDPDCDESGLFKAKQCNGTSMCWCVNTAGVRRTDKDTEITCSERVRTYWIIIELKHKAREKPYDSKSLRTALQKEITTRYQLDPKFITSILYENNVITIDLVQNSSQKTQNDVDIADVAYYFEKDVKGESLFHSKKMDLTVNGEQLDLDPGQTLIYYVDEKAPEFSMQGLKAGVIAVIVVVVIAVVAGIVVLVISRKKRMAKYEKAEIKEMGEMHRELNA

— PMC7052170
